PubChem BioAssay AID1259405, NCATS – 2018

Test: 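Mouse-designed siRNAs used to find CHO productivity engineering targets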 (primary screen)
System: Chinese hamster CHO-K1 ovary cells with stable secreted eGFP expression
Reagents: single siRNA against mouse genes, 0.8 pmol siRNA per well (2 µl of 400 nM stock)
Time to read-out: 3 days
Measurement: 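Percent of the per-plate non-targeting control median for intracellular GFP per well by laser scanning cytometry and for cell viability by ATP luminescence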
Direction: GFP, % of control: higher = more GFP per well, higher productivity; viability (ATP), % of control: higher = more viable cells (more ATP)
Call rule: 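a knock-down is called active if GFP reaches 120% or more of non-targeting control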
The whole screen tested about 50,000 reagents; shown is an unselected part. Over the whole deposit, about 4,000 (8%) were called active. 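Mouse siRNA library applied to hamster cells; one well for each siRNA.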 The numbers tell different reagents against one gene apart. No sequences are given here.

The first 8 records, to show the layout:
| target | reagent no. | GFP, % of control | viability (ATP), % of control | Outcome |
| --- | --- | --- | --- | --- |
| Zc4h2 | 1 | 49.5 | 56 | inactive |
| Zc4h2 | 2 | 76.6 | 65.9 | inactive |
| Zc4h2 | 3 | 86.3 | 78.9 | inactive |
| Cyc1 | 1 | 73.7 | 59.4 | inactive |
| Cyc1 | 2 | 65.9 | 68.7 | inactive |
| Cyc1 | 3 | 62.6 | 67.2 | inactive |
| Sp9 | 1 | 64.4 | 64.1 | inactive |
| Sp9 | 2 | 50 | 73.9 | inactive |

Results, repeating the preview:
| target | reagent no. | GFP, % of control | viability (ATP), % of control | Outcome |
| --- | --- | --- | --- | --- |
| Zc4h2 | 1 | 49.5 | 56 | inactive |
| Zc4h2 | 2 | 76.6 | 65.9 | inactive |
| Zc4h2 | 3 | 86.3 | 78.9 | inactive |
| Cyc1 | 1 | 73.7 | 59.4 | inactive |
| Cyc1 | 2 | 65.9 | 68.7 | inactive |
| Cyc1 | 3 | 62.6 | 67.2 | inactive |
| Sp9 | 1 | 64.4 | 64.1 | inactive |
| Sp9 | 2 | 50 | 73.9 | inactive |
| Sp9 | 3 | 68.4 | 38.4 | inactive |
| Stat4 | 1 | 87.9 | 96.3 | inactive |
| Stat4 | 2 | 55.9 | 85.9 | inactive |
| Stat4 | 3 | 54.5 | 75 | inactive |
| Ccny | 1 | 37.4 | 49.9 | inactive |
| Ccny | 2 | 81.7 | 79 | inactive |
| Ccny | 3 | 93.5 | 122 | inactive |
| Tbxa2r | 1 | 43.7 | 63.1 | inactive |
| Tbxa2r | 2 | 68.9 | 68.8 | inactive |
| Tbxa2r | 3 | 95.7 | 42.4 | inactive |
| Ccdc186 | 1 | 132 | 104 | active |
| Ccdc186 | 2 | 41.8 | 41.6 | inactive |
| Ccdc186 | 3 | 84.3 | 105 | inactive |
| Cd9 | 1 | 100 | 73.8 | inactive |
| Cd9 | 2 | 124 | 93 | active |
| Cd9 | 3 | 76.8 | 77.4 | inactive |
| Msmb | 1 | 63.3 | 60 | inactive |
| Msmb | 2 | 120 | 53.6 | inactive |
| Msmb | 3 | 54.9 | 71.9 | inactive |
| Gulp1 | 1 | 66 | 84.7 | inactive |
| Gulp1 | 2 | 130 | 126 | active |
| Gulp1 | 3 | 73.9 | 103 | inactive |
| Rasef | 1 | 64.6 | 57.8 | inactive |
| Rasef | 2 | 15.4 | 15.9 | inactive |
| Rasef | 3 | 65.5 | 57.5 | inactive |
| Ar | 1 | 43.7 | 52.6 | inactive |
| Ar | 2 | 84.5 | 75.4 | inactive |
| Ar | 3 | 120 | 43.8 | active |
| Efcab8 | 1 | 42.9 | 28.2 | inactive |
| Efcab8 | 2 | 81.1 | 101 | inactive |
| Efcab8 | 3 | 103 | 118 | inactive |
| Pcyox1 | 1 | 70.1 | 37.6 | inactive |
| Pcyox1 | 2 | 85.8 | 78.6 | inactive |
| Pcyox1 | 3 | 50.1 | 88.4 | inactive |
| Ly6g6e | 1 | 51.8 | 86.6 | inactive |
| Ly6g6e | 2 | 67.8 | 59.3 | inactive |
| Ly6g6e | 3 | 99.2 | 87.6 | inactive |
| Has2 | 1 | 119 | 114 | inactive |
| Has2 | 2 | 103 | 83.3 | inactive |
| Has2 | 3 | 130 | 95.7 | active |
| Lypd1 | 1 | 79.3 | 123 | inactive |
| Lypd1 | 2 | 57.6 | 96.4 | inactive |
| Pltp | 1 | 108 | 86 | inactive |
| Pltp | 2 | 126 | 128 | active |
| Pltp | 3 | 81.7 | 118 | inactive |
| Adam22 | 1 | 29.9 | 20 | inactive |
| Adam22 | 2 | 71.5 | 35.4 | inactive |
| Adam22 | 3 | 81.2 | 89.2 | inactive |
| Psd2 | 1 | 29.6 | 23.7 | inactive |
| Psd2 | 2 | 78.3 | 89.1 | inactive |
| Psd2 | 3 | 102 | 94.2 | inactive |
| Sun3 | 1 | 41 | 44.7 | inactive |
| Sun3 | 2 | 88.3 | 73.5 | inactive |
| Sun3 | 3 | 80.2 | 83.2 | inactive |
| Or2l13 | 1 | 61.4 | 65.8 | inactive |
| Or2l13 | 2 | 60.9 | 90.8 | inactive |
| Or2l13 | 3 | 39.2 | 21.1 | inactive |
| Krt14 | 1 | 34.6 | 48.8 | inactive |
| Krt14 | 2 | 60.2 | 70.7 | inactive |
| Krt14 | 3 | 138 | 100 | active |
| Pgf | 1 | 74.8 | 79.3 | inactive |
| Pgf | 2 | 82.5 | 83.2 | inactive |
| Pgf | 3 | 53.3 | 67.9 | inactive |
| Adra1a | 1 | 94.5 | 67.8 | inactive |
| Adra1a | 2 | 69.9 | 79.1 | inactive |
| Adra1a | 3 | 42.3 | 51 | inactive |
| Zfp473 | 1 | 113 | 97.4 | inactive |
| Zfp473 | 2 | 77.3 | 63.1 | inactive |
| Zfp473 | 3 | 91.1 | 102 | inactive |
| Fam3c | 1 | 70.4 | 81.2 | inactive |
| Fam3c | 2 | 59.8 | 55 | inactive |
| Fam3c | 3 | 83 | 96.3 | inactive |
| Pon3 | 1 | 135 | 107 | active |
| Pon3 | 2 | 89.8 | 103 | inactive |
| Pon3 | 3 | 57.6 | 93.7 | inactive |
| Rho | 1 | 36.7 | 38.1 | inactive |
| Rho | 2 | 78 | 89.8 | inactive |
| Rho | 3 | 53.9 | 90.1 | inactive |
